Laboratory results from patent US9802929B2, “Benzo five-membered nitrogen heterocyclic piperidine or piperazine derivatives and preparation methods and pharmaceutical compositions thereof” (Shenyang Haiwang Biotechnology Co., Ltd., priority 2012, dated 2017).
Some of these results come from one statement about several compounds together.

What was measured:
[1] = system: In-Vitro Vascular Smooth Muscle of Rabbits; experiment: Relaxant effect on in vitro rabbit vascular smooth muscle contraction induced by hyperkalemia solution
[2] = system: In Vitro Vascular Smooth Muscle of Rabbits; experiment: Relaxant effect on in vitro rabbit vascular smooth muscle contraction induced by adrenaline (AD); conditions: AD 10^−5 mol/L
Excerpt: Krebs-Henseleit (K—H) physiological solution: NaCl 6.92 (concentration units), KCl 0.35, MgSO4 0.29, KH2PO4 0.16, CaCl2 0.28, NaHCO3 2.1, glucose 2.0 (g/L), pH 7.2.
Preparation of compound II-1 to II-87 solutions: Weigh a certain quality compound samples and dilute to concentrations (10^−10˜10^−3 mol/L) with distilled water, standby.
Cut the chest open quickly after stunning, strip out the descending aorta, then after removing the surrounding connective tissue and adipose tissue (if performed serotonin receptor antagonist experiments, endothelial cells should be removed using a smooth stainless steel bars), cut the vessels into 3-5 mm vascular ring, then pass the steel hook through the blood vessel ring, with one end is fixed to the vent hook and the other end connected to the tension transducer, then place the specimens into bath tube containing 20 mL of nutrient solution, and record tension change by tension transducer. Maintain tube temperature at 37±0.5° C., and pass bubbles (95% O2+5% CO2) into the solution as a speed of 1-2 bubbles/minute. Place an initial load of 1.5 g on the rings, and change nutrient every 20 minutes, then balance for 2 hours and start test after baseline readings are stabilized.
After tension readings are stabilized, record a certain length of tension curve, and add spasmogens agent AD (10^−5 mol/L) to induce contraction; if a maximum contract is achieved, wash the specimens thoroughly, and change K—H solution every 20 minutes, and then balance for 60 minutes; after baseline readings are stabilized, induce contract with spasmogens agent again. When the maximum contract in the later induction is consistent with the former induction, add compound II-1 to II-34 solutions (1×10^−10 to 1×10^−3 mol/L), II-35 to II-87 solutions (1×10^−8-1×10^−3 mol/L), and record the curves. Draw a dose-response curve using maximum relaxation response as 100%, relaxation percentage as ordinate and negative logarithms of the each concentration as abscissa.

Structure (SMILES)	relaxant effect against hyperkalemia solution contraction (in words) [1]	relaxant effect against AD contraction (in words) [2]
Fc1ccc2c(N3CCN(CCCOn4nnc5ccccc54)CC3)noc2c1 [II-86]	Relaxant Effect	Vascular Smooth Muscle Relaxant Effect
COc1ccc2nnn(CCCN3CCC(c4n[nH]c5cc(F)ccc45)CC3)c2c1 [II-27, N-(3-(6-methoxybenzotriazolyl)propyl)-4-(3-(6-fluorobenzopyrazol))piperidine]	Relaxant Effect	Vascular Smooth Muscle Relaxant Effect
FC(F)(F)c1cccc(C2CCN(CCCOn3nnc4ccccc43)CC2)c1 [II-10, N-(4-(1H-benzotriazole-1-yl)propoxy)-4-(3-trifluoromethylphenyl)piperidine]	Relaxant Effect	Vascular Smooth Muscle Relaxant Effect
Fc1cccc(C2CCN(CCCCn3cnc4ccccc43)CC2)c1 [II-5, N-(4-(1H-benzimidazol-1-yl)butyl)-4-(3-fluorophenyl)piperidine]	Relaxant Effect	Vascular Smooth Muscle Relaxant Effect
c1coc(N2CCN(CCCCn3nnc4ccccc43)CC2)c1 [II-76, 1-(4-(4-(2-furyl)piperazin-1-yl)butyl)-1H-benzotriazole]	Relaxant Effect	Vascular Smooth Muscle Relaxant Effect
c1ccc2c(c1)nnn2CCCCN1CCN(c2ccncc2)CC1 [II-77, 1-(4-(4-(4-pyridyl)piperazin-1-yl)butyl)-1H-benzotriazole]	Relaxant Effect	Vascular Smooth Muscle Relaxant Effect
N#Cc1ccc2nnn(CCCCN3CCC(c4cccc(C(F)(F)F)c4)CC3)c2c1 [II-9, N-(4-(6-cyano-1H-benzotriazole-1-yl)butyl)-4-(3-trifluoromethylphenyl)piperidine]	Relaxant Effect	Vascular Smooth Muscle Relaxant Effect
COc1ccc2nnn(CCCN3CCC(c4nsc5cc(F)ccc45)CC3)c2c1 [II-26, N-(3-(6-methoxybenzotriazolyl)propyl)-4-(3-(6-fluorophenyl and isothiazole))piperidine]	Relaxant Effect	Vascular Smooth Muscle Relaxant Effect
Fc1ccc2c(N3CCN(CCCCn4nnc5ccccc54)CC3)nsc2c1 [II-81, 1-(4-(4-(3-(6-fluoro-benzisothiazolyl))piperazin-1-yl)butyl)-1H-benzotriazole]	Relaxant Effect	Vascular Smooth Muscle Relaxant Effect
N#Cc1ccc2nnn(CCCCN3CCC(c4noc5cc(F)ccc45)CC3)c2c1 [II-22, N-(4-(6-cyano-benzotriazole)butyl)-4-(3-(6-fluorobenzoisoxazole))piperidine]	Relaxant Effect	Vascular Smooth Muscle Relaxant Effect
c1ccc2c(N3CCN(CCCCn4cnc5ccccc54)CC3)cccc2c1 [II-50, 1-(4-(4-(1-naphthyl)piperazin-1-yl)butyl)-1H-benzimidazole]	Relaxant Effect	Vascular Smooth Muscle Relaxant Effect
Cc1nc2ccccc2n1CCCN1CCN(c2cccc(F)c2)CC1 [II-43, 2-methyl-1-(3-(4-(3-fluorophenyl)piperazin-1-yl)propyl)-1H-benzimidazole]	Relaxant Effect	Vascular Smooth Muscle Relaxant Effect
Fc1ccc2ncn(CCCCN3CCN(c4cccc(C(F)(F)F)c4)CC3)c2c1 [II-40, 6-fluoro-1-(4-(4-(3-trifluoromethylphenyl)piperazin-1-yl)butyl)-1H-benzimidazole]	Relaxant Effect	Vascular Smooth Muscle Relaxant Effect
Fc1ccc2c(N3CCN(CCCCn4cnc5ccccc54)CC3)noc2c1 [II-52, 1-(4-(4-(3-(6-fluorobenzoisoxazolyl))piperazin-1-yl)butyl)-1H-benzimidazole]	Relaxant Effect	Vascular Smooth Muscle Relaxant Effect
COc1ccc2nnn(OCCN3CCC(c4noc5ccccc45)CC3)c2c1 [II-24, N-(2-(6-methoxybenzotriazole)ethoxy)-4-(3-benzoisoxazole)piperidine]	Relaxant Effect	Vascular Smooth Muscle Relaxant Effect
Clc1cccc(N2CCN(CCCOn3cnc4ccccc43)CC2)c1 [II-58, 1-(4-(4-(3-chlorophenyl)piperazin-1-yl)propoxy)-1H-benzimidazole]	Relaxant Effect	Vascular Smooth Muscle Relaxant Effect
Fc1ccc2c(C3CCN(CCn4nnc5ccccc54)CC3)noc2c1 [II-20, N-(2-(1-benzotriazole-yl)ethyl)-4-(3-(6-fluorobenzoisoxazole))piperidine]	Relaxant Effect	Vascular Smooth Muscle Relaxant Effect
c1cnc(C2CCN(CCCCn3cnc4ccccc43)CC2)nc1 [II-31, N-(4-(1H-benzimidazol-1-yl)butyl)-4-(2-pyrimidinyl)piperidine]	Relaxant Effect	Vascular Smooth Muscle Relaxant Effect
c1ccc2c(c1)ncn2CCCCN1CCN(C2CCCCC2)CC1 [II-49, 1-(4-(4-(1-cyclohexyl)piperazin-1-yl)butyl)-1H-benzimidazole]	Relaxant Effect	Vascular Smooth Muscle Relaxant Effect
Fc1ccc2c(N3CCN(CCCn4nnc5ccccc54)CC3)coc2c1 [II-82]	Relaxant Effect	Vascular Smooth Muscle Relaxant Effect
Cc1ccc2nnn(CCCN3CCC(c4noc5cc(F)ccc45)CC3)c2c1 [II-16, N-(3-(6-methyl-1H-benzotriazole-1-yl)propyl)-4-(3-(6-fluorobenzoisoxazole))piperidine]	Relaxant Effect	Vascular Smooth Muscle Relaxant Effect
COc1ccccc1C1CCN(CCCCn2cnc3ccccc32)CC1 [Compound II-6, N-(4-(1H-benzimidazol-1-yl)butyl)-4-(2-methoxyphenyl)piperidine]	Relaxant Effect	Vascular Smooth Muscle Relaxant Effect
FC(F)(F)c1cccc(N2CCN(CCCOn3cnc4ccccc43)CC2)c1 [II-57, 1-(4-(4-(3-trifluoromethylphenyl)piperazin-1-yl)propoxy)-1H-benzimidazole]	Relaxant Effect	Vascular Smooth Muscle Relaxant Effect
Fc1ccc2c(N3CCN(CCCCn4cnc5ccccc54)CC3)nsc2c1 [II-53, 1-(4-(4-(3-(6-fluorobenzothiazolisothiazolyl))piperazin-1-yl)butyl)-1H-benzimidazole]	Relaxant Effect	Vascular Smooth Muscle Relaxant Effect
COc1ccc2nnn(CCCN3CCC(c4noc5cc(F)ccc45)CC3)c2c1 [II-17, N-(3-(6-methoxy-1H-benzotriazole-1-yl)propyl)-4-(3-(6-fluorobenzoisoxazole))piperidine]	Relaxant Effect	Vascular Smooth Muscle Relaxant Effect
Cc1ccc2c(C3CCN(CCCn4nnc5ccccc54)CC3)noc2c1 [II-12, N-(3-(1H-benzotriazole-1-yl)propyl)-4-(3-(6-methyl-benzisoxazole))piperidine]	Relaxant Effect	Vascular Smooth Muscle Relaxant Effect
COC(=O)c1ccc2ncn(CCCCN3CCN(c4cccc(C(F)(F)F)c4)CC3)c2c1 [II-61, 6-methoxycarbonyl-1-(4-(4-(3-trifluoromethylphenyl)piperazin-1-yl)butyl)-1H-benzimidazole]	Relaxant Effect	Vascular Smooth Muscle Relaxant Effect
Fc1ccc2nnn(CCCCN3CCC(c4cccc(C(F)(F)F)c4)CC3)c2c1 [II-7, N-(4-(6-fluoro-1H-benzotriazole-1-yl)butyl)-4-(3-trifluoromethylphenyl)piperidine]	Relaxant Effect	Vascular Smooth Muscle Relaxant Effect
